How the values were obtained:
in vivo [1] = settings: rat, po, DL 50, Wistar rat, per os
in vivo [2] = settings: mouse, po, per os

Work on `O=C(O)COCCN1CCN(C(c2ccccc2)c2ccc(Cl)cc2)CC1` (stereo not shown) [J, 2-[2-[4-[(4-chlorophenyl)phenylmethyl]-1-piperazinyl]ethoxy]-acetic acid] yielded an LD50 (in vivo [1]; female) of 865 mg/kg, an LD50 (in vivo [1]; male) of 703 mg/kg and an LD50 (in vivo [2]; DL 50, female mouse) of 752 mg/kg. It also gave an LD50 (in vivo [2]; DL 50, male mouse) of 600 mg/kg.
